The source of these data is PMC11554760.

For at least one entry, the source does not settle the construct or the ends of the probe. At least one verdict rests on a figure or table, not on a statement of the authors.

This data set deals with His-CsPHL7 (Camellia sinensis). Kind of data set: EMSA. To be noted: LightShift chemiluminescent EMSA kit (Thermo), pH and temperature not stated, recombinant protein, protein details: His (N-terminal). For orientation: A gel shift assay detects complexes by their altered migration in electrophoresis.

“AATCATGACATTGATATTCCCAAAAAATG (double strand) [TS1-Probe-2]”: the binding result (label: biotin) was “binds”. With “AATTAACCTTATCATATTCATAACCTAAG (double strand) [TS1-Probe-1]”, the binding result (label: biotin) was “binds”. Regarding “CTACCAAAAAAAGTTAGATTCCCCAAAAG (double strand) [TS1-Probe-3]”, the binding result (label: biotin) was “binds”. With “TAACTCTAACTCATTATTCTTGAAACCTC (double strand) [TS1-Probe-4]”, the binding result (label: biotin) is given as “binds”. With “TATGAAAGAATATATCATCCATACT (double strand) [GS1-Probe]”, the binding result (label: 5' biotin on both strands) is listed as “binds”.
